Measurements published in patent US12270064B2 (Guangzhou University, priority 2020, dated 2025).
No end group written: not given here.

Experiment: peptide synthesis
Conditions: whole synthesis

## KYKRQRW
  purity (crude or final not stated): 95% or more
